Data from article PMC4076869.
These are yes or no findings as the source states them, for the method shown. Binding seen in cells or lysates may run through a third protein. Some results given as binding are weak or reduced against the parent protein; the word gives no strength. Sequences can lack the tags named with a protein.

The chains behind the UniProt entries cited, without tags or fusion partners. Where a name states a change or a piece, a line headed by the entry shows the natural chain unless it says otherwise.
UniProt Q14209: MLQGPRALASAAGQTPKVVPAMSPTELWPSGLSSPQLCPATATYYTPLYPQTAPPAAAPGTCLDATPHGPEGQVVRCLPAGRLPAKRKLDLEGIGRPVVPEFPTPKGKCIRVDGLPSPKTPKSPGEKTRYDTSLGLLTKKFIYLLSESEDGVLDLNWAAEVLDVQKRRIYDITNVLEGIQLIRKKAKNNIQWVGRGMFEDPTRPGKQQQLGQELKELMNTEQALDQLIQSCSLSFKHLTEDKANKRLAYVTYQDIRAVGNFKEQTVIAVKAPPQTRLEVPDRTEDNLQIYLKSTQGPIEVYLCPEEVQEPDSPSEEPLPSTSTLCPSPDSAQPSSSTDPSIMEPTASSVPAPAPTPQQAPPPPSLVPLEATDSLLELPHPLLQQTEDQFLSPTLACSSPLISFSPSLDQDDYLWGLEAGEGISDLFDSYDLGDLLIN
UniProt O00716: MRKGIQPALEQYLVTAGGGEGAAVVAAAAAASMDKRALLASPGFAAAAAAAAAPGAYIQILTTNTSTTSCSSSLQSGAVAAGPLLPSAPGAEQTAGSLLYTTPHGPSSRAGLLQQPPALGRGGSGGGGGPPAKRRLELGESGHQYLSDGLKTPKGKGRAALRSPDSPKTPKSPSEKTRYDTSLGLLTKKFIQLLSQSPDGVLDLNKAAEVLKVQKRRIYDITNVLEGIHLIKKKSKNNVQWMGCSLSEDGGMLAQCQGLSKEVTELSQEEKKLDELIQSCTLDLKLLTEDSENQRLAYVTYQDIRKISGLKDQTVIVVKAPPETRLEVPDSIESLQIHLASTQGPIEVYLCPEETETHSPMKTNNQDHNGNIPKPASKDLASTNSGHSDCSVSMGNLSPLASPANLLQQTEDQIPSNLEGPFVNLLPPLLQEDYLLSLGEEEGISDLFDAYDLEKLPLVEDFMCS
UniProt Q16254: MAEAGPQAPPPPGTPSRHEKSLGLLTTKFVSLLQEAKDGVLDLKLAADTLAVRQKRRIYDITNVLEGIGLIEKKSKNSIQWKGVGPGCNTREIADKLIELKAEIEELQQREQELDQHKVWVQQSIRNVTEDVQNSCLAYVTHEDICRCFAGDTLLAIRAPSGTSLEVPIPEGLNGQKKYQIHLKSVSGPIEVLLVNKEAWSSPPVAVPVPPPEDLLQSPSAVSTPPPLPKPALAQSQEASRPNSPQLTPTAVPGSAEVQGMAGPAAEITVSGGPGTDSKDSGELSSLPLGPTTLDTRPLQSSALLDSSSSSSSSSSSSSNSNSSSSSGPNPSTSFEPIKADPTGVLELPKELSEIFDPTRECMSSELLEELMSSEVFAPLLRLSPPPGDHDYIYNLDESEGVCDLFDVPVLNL

What was measured:
Assay in all cases: co-IP; each Rb-HA construct co-transfected into cells co-expressing E1a or a Myc-tagged E2F; E1a or the E2F immunoprecipitated, immunoblot for the associated Rb-HA
[1] = target: E2F-2 transcription factor (Myc tagged) (UniProt Q14209)
[2] = target: E2F-3 transcription factor (Myc tagged) (UniProt O00716)
[3] = target: E2F-4 transcription factor (Myc tagged) (UniProt Q16254)

Binder	binding [1]	binding [2]	binding [3]
Rb-HA single Cdk site construct S230 (mono-phosphorylated Rb isoform) (protein, UniProt P06400 1-928, phosphate on S230 (mono-phosphorylated in cells)) MPPKAPRKTAATAAAAAAEPPAPPPPPPPEEDPEQDSGPEDLPLVRLEFEETEEPDFTALCQKLKIPDHVRERAWLTWEKVSSVDGVLGGYIQKKKELWGICIFIAAVDLDEMSFTFTELQKNIEISVHKFFNLLKEIDTSTKVDNAMSRLLKKYDVLFALFSKLERTCELIYLTQPSSSISTEINSALVLKVSWITFLLAKGEVLQMEDDLVISFQLMLCVLDYFIKLSPPMLLKEPYKTAVIPINGAPRAPRRGQNRSARIAKQLENDTRIIEVLCKEHECNIDEVKNVYFKNFIPFMNSLGLVTSNGLPEVENLSKRYEEIYLKNKDLDARLFLDHDKTLQTDSIDSFETQRAPRKSNLDEEVNVIPPHAPVRTVMNTIQQLMMILNSASDQPSENLISYFNNCTVNPKESILKRVKDIGYIFKEKFAKAVGQGCVEIGSQRYKLGVRLYYRVMESMLKSEEERLSIQNFSKLLNDNIFHMSLLACALEVVMATYSRSTSQNLDSGTDLSFPWILNVLNLKAFDFYKVIESFIKAEGNLTREMIKHLERCEHRIMESLAWLSDSPLFDLIKQSKDREGPTDHLESACPLNLPLQNNHTAADMYLAPVRAPKKKGSTTRVNSTANAETQATSAFQTQKPLKSTSLSLFYKKVYRLAYLRLNTLCERLLSEHPELEHIIWTLFQHTLQNEYELMRDRHLDQIMMCSMYGICKVKNIDLKFKIIVTAYKDLPHAVQETFKRVLIKEEEYDSIIVFYNSVFMQRLKTNILQYASTRPPTLAPIPHIPRAPYKFPSAPLRIPGGNIYIAPLKAPYKISEGLPAPTKMAPRSRILVSIGESFGTSEKFQKINQMVCNSDRVLKRSAEGSNPPKPLKKLRFDIEGSDEADGSKHLPGESKFQQKLAEMTSTRTRMQKQKMNDSMDTSNKEEK	binds	binds	binds
Rb-HA single Cdk site construct S249 (mono-phosphorylated Rb isoform) (protein, UniProt P06400 1-928, phosphate on S249 (mono-phosphorylated in cells)) MPPKAPRKTAATAAAAAAEPPAPPPPPPPEEDPEQDSGPEDLPLVRLEFEETEEPDFTALCQKLKIPDHVRERAWLTWEKVSSVDGVLGGYIQKKKELWGICIFIAAVDLDEMSFTFTELQKNIEISVHKFFNLLKEIDTSTKVDNAMSRLLKKYDVLFALFSKLERTCELIYLTQPSSSISTEINSALVLKVSWITFLLAKGEVLQMEDDLVISFQLMLCVLDYFIKLAPPMLLKEPYKTAVIPINGSPRAPRRGQNRSARIAKQLENDTRIIEVLCKEHECNIDEVKNVYFKNFIPFMNSLGLVTSNGLPEVENLSKRYEEIYLKNKDLDARLFLDHDKTLQTDSIDSFETQRAPRKSNLDEEVNVIPPHAPVRTVMNTIQQLMMILNSASDQPSENLISYFNNCTVNPKESILKRVKDIGYIFKEKFAKAVGQGCVEIGSQRYKLGVRLYYRVMESMLKSEEERLSIQNFSKLLNDNIFHMSLLACALEVVMATYSRSTSQNLDSGTDLSFPWILNVLNLKAFDFYKVIESFIKAEGNLTREMIKHLERCEHRIMESLAWLSDSPLFDLIKQSKDREGPTDHLESACPLNLPLQNNHTAADMYLAPVRAPKKKGSTTRVNSTANAETQATSAFQTQKPLKSTSLSLFYKKVYRLAYLRLNTLCERLLSEHPELEHIIWTLFQHTLQNEYELMRDRHLDQIMMCSMYGICKVKNIDLKFKIIVTAYKDLPHAVQETFKRVLIKEEEYDSIIVFYNSVFMQRLKTNILQYASTRPPTLAPIPHIPRAPYKFPSAPLRIPGGNIYIAPLKAPYKISEGLPAPTKMAPRSRILVSIGESFGTSEKFQKINQMVCNSDRVLKRSAEGSNPPKPLKKLRFDIEGSDEADGSKHLPGESKFQQKLAEMTSTRTRMQKQKMNDSMDTSNKEEK	binds	binds	binds
Rb-HA single Cdk site construct S795 (mono-phosphorylated Rb isoform) (protein, UniProt P06400 1-928, phosphate on S795 (mono-phosphorylated in cells)) MPPKAPRKTAATAAAAAAEPPAPPPPPPPEEDPEQDSGPEDLPLVRLEFEETEEPDFTALCQKLKIPDHVRERAWLTWEKVSSVDGVLGGYIQKKKELWGICIFIAAVDLDEMSFTFTELQKNIEISVHKFFNLLKEIDTSTKVDNAMSRLLKKYDVLFALFSKLERTCELIYLTQPSSSISTEINSALVLKVSWITFLLAKGEVLQMEDDLVISFQLMLCVLDYFIKLAPPMLLKEPYKTAVIPINGAPRAPRRGQNRSARIAKQLENDTRIIEVLCKEHECNIDEVKNVYFKNFIPFMNSLGLVTSNGLPEVENLSKRYEEIYLKNKDLDARLFLDHDKTLQTDSIDSFETQRAPRKSNLDEEVNVIPPHAPVRTVMNTIQQLMMILNSASDQPSENLISYFNNCTVNPKESILKRVKDIGYIFKEKFAKAVGQGCVEIGSQRYKLGVRLYYRVMESMLKSEEERLSIQNFSKLLNDNIFHMSLLACALEVVMATYSRSTSQNLDSGTDLSFPWILNVLNLKAFDFYKVIESFIKAEGNLTREMIKHLERCEHRIMESLAWLSDSPLFDLIKQSKDREGPTDHLESACPLNLPLQNNHTAADMYLAPVRAPKKKGSTTRVNSTANAETQATSAFQTQKPLKSTSLSLFYKKVYRLAYLRLNTLCERLLSEHPELEHIIWTLFQHTLQNEYELMRDRHLDQIMMCSMYGICKVKNIDLKFKIIVTAYKDLPHAVQETFKRVLIKEEEYDSIIVFYNSVFMQRLKTNILQYASTRPPTLAPIPHIPRAPYKFPSSPLRIPGGNIYIAPLKAPYKISEGLPAPTKMAPRSRILVSIGESFGTSEKFQKINQMVCNSDRVLKRSAEGSNPPKPLKKLRFDIEGSDEADGSKHLPGESKFQQKLAEMTSTRTRMQKQKMNDSMDTSNKEEK	binds	binds	–
Rb-HA single Cdk site construct S807 (mono-phosphorylated Rb isoform) (protein, UniProt P06400 1-928, phosphate on S807 (mono-phosphorylated in cells)) MPPKAPRKTAATAAAAAAEPPAPPPPPPPEEDPEQDSGPEDLPLVRLEFEETEEPDFTALCQKLKIPDHVRERAWLTWEKVSSVDGVLGGYIQKKKELWGICIFIAAVDLDEMSFTFTELQKNIEISVHKFFNLLKEIDTSTKVDNAMSRLLKKYDVLFALFSKLERTCELIYLTQPSSSISTEINSALVLKVSWITFLLAKGEVLQMEDDLVISFQLMLCVLDYFIKLAPPMLLKEPYKTAVIPINGAPRAPRRGQNRSARIAKQLENDTRIIEVLCKEHECNIDEVKNVYFKNFIPFMNSLGLVTSNGLPEVENLSKRYEEIYLKNKDLDARLFLDHDKTLQTDSIDSFETQRAPRKSNLDEEVNVIPPHAPVRTVMNTIQQLMMILNSASDQPSENLISYFNNCTVNPKESILKRVKDIGYIFKEKFAKAVGQGCVEIGSQRYKLGVRLYYRVMESMLKSEEERLSIQNFSKLLNDNIFHMSLLACALEVVMATYSRSTSQNLDSGTDLSFPWILNVLNLKAFDFYKVIESFIKAEGNLTREMIKHLERCEHRIMESLAWLSDSPLFDLIKQSKDREGPTDHLESACPLNLPLQNNHTAADMYLAPVRAPKKKGSTTRVNSTANAETQATSAFQTQKPLKSTSLSLFYKKVYRLAYLRLNTLCERLLSEHPELEHIIWTLFQHTLQNEYELMRDRHLDQIMMCSMYGICKVKNIDLKFKIIVTAYKDLPHAVQETFKRVLIKEEEYDSIIVFYNSVFMQRLKTNILQYASTRPPTLAPIPHIPRAPYKFPSAPLRIPGGNIYISPLKAPYKISEGLPAPTKMAPRSRILVSIGESFGTSEKFQKINQMVCNSDRVLKRSAEGSNPPKPLKKLRFDIEGSDEADGSKHLPGESKFQQKLAEMTSTRTRMQKQKMNDSMDTSNKEEK	binds	binds	–

The remaining lines, values ahead:

binding [1]	binding [2]	binding [3]	Binder
binds	binds	binds	Rb-HA single Cdk site construct T373 (mono-phosphorylated Rb isoform) (protein, UniProt P06400 1-928, phosphate on T373 (mono-phosphorylated in cells)) MPPKAPRKTAATAAAAAAEPPAPPPPPPPEEDPEQDSGPEDLPLVRLEFEETEEPDFTALCQKLKIPDHVRERAWLTWEKVSSVDGVLGGYIQKKKELWGICIFIAAVDLDEMSFTFTELQKNIEISVHKFFNLLKEIDTSTKVDNAMSRLLKKYDVLFALFSKLERTCELIYLTQPSSSISTEINSALVLKVSWITFLLAKGEVLQMEDDLVISFQLMLCVLDYFIKLAPPMLLKEPYKTAVIPINGAPRAPRRGQNRSARIAKQLENDTRIIEVLCKEHECNIDEVKNVYFKNFIPFMNSLGLVTSNGLPEVENLSKRYEEIYLKNKDLDARLFLDHDKTLQTDSIDSFETQRAPRKSNLDEEVNVIPPHTPVRTVMNTIQQLMMILNSASDQPSENLISYFNNCTVNPKESILKRVKDIGYIFKEKFAKAVGQGCVEIGSQRYKLGVRLYYRVMESMLKSEEERLSIQNFSKLLNDNIFHMSLLACALEVVMATYSRSTSQNLDSGTDLSFPWILNVLNLKAFDFYKVIESFIKAEGNLTREMIKHLERCEHRIMESLAWLSDSPLFDLIKQSKDREGPTDHLESACPLNLPLQNNHTAADMYLAPVRAPKKKGSTTRVNSTANAETQATSAFQTQKPLKSTSLSLFYKKVYRLAYLRLNTLCERLLSEHPELEHIIWTLFQHTLQNEYELMRDRHLDQIMMCSMYGICKVKNIDLKFKIIVTAYKDLPHAVQETFKRVLIKEEEYDSIIVFYNSVFMQRLKTNILQYASTRPPTLAPIPHIPRAPYKFPSAPLRIPGGNIYIAPLKAPYKISEGLPAPTKMAPRSRILVSIGESFGTSEKFQKINQMVCNSDRVLKRSAEGSNPPKPLKKLRFDIEGSDEADGSKHLPGESKFQQKLAEMTSTRTRMQKQKMNDSMDTSNKEEK
binds	binds	–	Rb-HA single Cdk site construct T821 (mono-phosphorylated Rb isoform) (protein, UniProt P06400 1-928, phosphate on T821 (mono-phosphorylated in cells)) MPPKAPRKTAATAAAAAAEPPAPPPPPPPEEDPEQDSGPEDLPLVRLEFEETEEPDFTALCQKLKIPDHVRERAWLTWEKVSSVDGVLGGYIQKKKELWGICIFIAAVDLDEMSFTFTELQKNIEISVHKFFNLLKEIDTSTKVDNAMSRLLKKYDVLFALFSKLERTCELIYLTQPSSSISTEINSALVLKVSWITFLLAKGEVLQMEDDLVISFQLMLCVLDYFIKLAPPMLLKEPYKTAVIPINGAPRAPRRGQNRSARIAKQLENDTRIIEVLCKEHECNIDEVKNVYFKNFIPFMNSLGLVTSNGLPEVENLSKRYEEIYLKNKDLDARLFLDHDKTLQTDSIDSFETQRAPRKSNLDEEVNVIPPHAPVRTVMNTIQQLMMILNSASDQPSENLISYFNNCTVNPKESILKRVKDIGYIFKEKFAKAVGQGCVEIGSQRYKLGVRLYYRVMESMLKSEEERLSIQNFSKLLNDNIFHMSLLACALEVVMATYSRSTSQNLDSGTDLSFPWILNVLNLKAFDFYKVIESFIKAEGNLTREMIKHLERCEHRIMESLAWLSDSPLFDLIKQSKDREGPTDHLESACPLNLPLQNNHTAADMYLAPVRAPKKKGSTTRVNSTANAETQATSAFQTQKPLKSTSLSLFYKKVYRLAYLRLNTLCERLLSEHPELEHIIWTLFQHTLQNEYELMRDRHLDQIMMCSMYGICKVKNIDLKFKIIVTAYKDLPHAVQETFKRVLIKEEEYDSIIVFYNSVFMQRLKTNILQYASTRPPTLAPIPHIPRAPYKFPSAPLRIPGGNIYIAPLKAPYKISEGLPTPTKMAPRSRILVSIGESFGTSEKFQKINQMVCNSDRVLKRSAEGSNPPKPLKKLRFDIEGSDEADGSKHLPGESKFQQKLAEMTSTRTRMQKQKMNDSMDTSNKEEK
